From PMC12670160, “A drug-repurposing screen of FDA- and EMA-approved drugs identifies two NF-κB inhibitors active against eumycetoma” (Journal of Antimicrobial Chemotherapy, 2025) come the findings set out here.

The test system of this assay is M. mycetomatis strain mm55. Particulars: primary screen, metabolic activity vs growth control, 96 h, 2 µM, inhibitor.

The structures appear in SMILES notation. Structures can show the parent of a compound that is named as a salt. Where two headings read alike, the source gives them in different places. The whole screen tested about 5,300 compounds, of which about 130 (2.5%) showed an effect of 50% or more. This is one part of the list.

For `CCCCC1OC(=O)c2ccccc21` (stereo not shown) [ONC0002284, butylphthalide], the “% viability” value turned out to be 103.4%.
On the same count and under the same terms, next, `O=C(O)CC(O)(CC(=O)O)C(=O)O.[Li].[Li].[Li]` [ONC0004255, lithium citrate hydrate]: 60.67%.
Consider `OC[C@H]1O[C@@H](O[C@@H]2[C@@H](CO)OC(O)(CO)[C@H]2O)[C@H](O)[C@@H](O)[C@H]1O` (mixture of isomers) [ONC0000410, lactulose], for which the “% viability” value amounted to 70.45%.
On the same count and under the same terms, in the case of `CCCN1CCO[C@@H]2c3cc(O)ccc3OC[C@H]21` [ONC0000309, pd128907] it was 42.57%.
Regarding `FC(F)(F)Oc1ccc2[nH]c(-c3ccc(OCCOCCOc4ccc(-c5nc6cc(OC(F)(F)F)ccc6[nH]5)nc4)cn3)nc2c1` [ONC0000980, ai1049], the “% viability” value is reported as 83.7%.
Still for that read-out and setting: next, `CC(=O)OCC(=O)[C@@]12OC(C)(C)O[C@@H]1CC1C3C[C@H](F)C4=CC(=O)C=C[C@]4(C)[C@@]3(F)[C@@H](O)C[C@@]12C` (stereo partly shown) [ONC0000518, fluocinonide]: 69.32%; `COc1ccc(-c2cc(C(F)F)nn2-c2ccc(S(N)(=O)=O)cc2)cc1F` [ONC0003972, deracoxib]: 81.02%; `N[C@@H](C(=O)N[C@@H]1C(=O)N2C(C(=O)O)=C(Cl)CS[C@H]12)c1ccccc1` [ONC0003819, cefaclor]: 72.17%.
The same measure, in the same setting: in the case of `CCCCCCCCCCCCCCCC[n+]1ccccc1` [ONC0000741, cetylpyridinium chloride] it was 69.27%; in that of `CN1CCN(c2cccc3[nH]c(=O)oc23)CC1` [ONC0001222, pardoprunox hydrochloride], 113%.
On the same count and under the same terms, next, `CCCCCCCCN=c1ccn(CCCCCCCCCCn2ccc(=NCCCCCCCC)cc2)cc1` [ONC0002745, octenidine dihydrochloride]: 205.7%; `COc1ccc(C(=O)NCc2ccc(OCCN(C)C)cc2)cc1OC` [ONC0004008, itopride hydrochloride]: 60.78%; `CC(C)CN(C[C@@H](OP(=O)(O)O)[C@H](Cc1ccccc1)NC(=O)O[C@H]1CCOC1)S(=O)(=O)c1ccc(N)cc1` [ONC0001934, fosamprenavir]: 68.14%.
As to `CC[C@@H](Nc1c(Nc2cccc(C(=O)N(C)C)c2O)c(=O)c1=O)c1ccc(C)o1` [ONC0000897, navarixin], the “% viability” value is on record as 86.41%.
Still for that read-out and setting: in the case of `COc1cc(N2CCN(C(C)=O)CC2)ccc1Nc1ncc(Cl)c(Nc2ccc(N3CCN(C(C)=O)CC3)cc2OC)n1` [ONC0003574, krca0008] it was 122%.
The same measure, in the same setting: next, `CN(C)Cc1cccc(N/C(=C2\C(=O)Nc3cc(C(N)=O)ccc32)c2ccccc2)c1` [ONC0004857, bix 02188]: 98.87%; `Cc1cnc(CNC(=O)c2c(=O)c3ccc(N4CCCN(C)CC4)nc3n3c2sc2ccccc23)cn1` [ONC0002208, cx5461]: 69.16%.
Same read-out and setting: next, `O=C(Nc1ccccc1C(=O)Nc1ccc(CCO)cc1)c1ccc([N+](=O)[O-])cc1` [ONC0001772, ks176]: 95.92%; `Nc1ncnc2c1c(-c1ccc(Cl)cc1)nn2-c1cccc(-c2cnnn2Cc2cccc(-c3ccccc3)c2)c1` [ONC0004379, kbsrc4]: 160.9%; `O=C(c1cc(O)c(O)c(O)c1)c1ccc(O)c(O)c1O` [ONC0005442, exifone]: 114.2%.
With `C=C1C(=O)O[C@@H]2C[C@@]3(C)CCC[C@H](C)C3=C[C@H]12` [ONC0000067, alantolactone], the “% viability” value turned out to be 159.8%.
`Cc1c(C(=O)NN2CCOCC2)nn(-c2ccc(Cl)cc2Cl)c1-c1ccc(I)cc1` [ONC0000357, am281]: the “% viability” value is 71.97%.
For `COc1ccc2nc(NC(=O)Nc3ccccc3)sc2c1` [ONC0001834, frentizole], the “% viability” value is recorded as 101.5%.
With `N#Cc1c(-c2ccccc2)cc(-c2cc(Br)ccc2O)[nH]c1=O` [ONC0000184, tcspim11], the “% viability” value was found to be 67.05%.
In the case of `CC(C)Oc1ccc2c(=O)c3cc(C(=O)O)ccc3oc2c1` [ONC0003031, ah6809], the “% viability” value is recorded as 81.53%.
`Nc1ncnc2c1ncn2[C@@H]1O[C@H](COP(=O)(O)OP(=O)(O)OP(=O)(O)O)[C@@H](O)[C@H]1O` [ONC0003884, adenosine triphosphate disodium]: the “% viability” value amounted to 91.31%.
Consider `CCC(=O)O[C@]1(C(=O)CCl)[C@@H](C)C[C@H]2[C@@H]3C[C@H](F)C4=CC(=O)C=C[C@]4(C)[C@@]3(F)[C@@H](O)C[C@@]21C` [ONC0005192, halobetasol propionate], for which the “% viability” value is recorded as 116.1%.
With `O=C1OC2(c3cc(I)c(O)c(I)c3Oc3c2cc(I)c(O)c3I)c2c(Cl)c(Cl)c(Cl)c(Cl)c21` [ONC0002983, rosebengallactone], where the note is “Madurella mycetomatis metabolic activity at 2µM (%)”, the “% viability” value is on record as 60.55%.
Take `O=C(C[C@H]1NCCC[C@@H]1O)Cn1cnc2cc(Br)c(Cl)cc2c1=O` (racemic) [ONC0004939, halofuginone]: the “% viability” value was 90.07%.
For the compound `C[C@@H](CN1CC(=O)NC(=O)C1)N1CC(=O)NC(=O)C1` [ONC0001431, dexrazoxane], the “% viability” value was 71.57%.
`CC(=O)Nc1ccc(CC(=O)O)cc1` [ONC0000495, actarit]: the “% viability” value is reported as 68.16%.
On to `Cc1nc2n(c(=O)c1CCN1CCC(c3noc4cc(F)ccc34)CC1)CCCC2` [ONC0005370, risperidone], for which the “% viability” value is listed as 102.3%.
Turning to `CNCCC(Oc1ccc(C(F)(F)F)cc1)c1ccccc1` (stereo not shown) [ONC0002299, fluoxetine hydrochloride], the “% viability” value is on record as 68.8%.
The same measure, in the same setting: in the case of `Cn1nccc1Nc1nccc(-c2ccn([C@H](CO)c3ccc(Cl)c(F)c3)c(=O)c2)n1` [ONC0000398, ravoxertinib] it was 82.99%; in that of `CCCCc1ccc(C(N)=O)nc1` [ONC0003779, bupicomide], 132.3%.
Turning to `O=C(O)Cc1sc(-c2ccccc2)nc1-c1ccc(Cl)cc1` [ONC0002498, fentiazac], the “% viability” value is 100.8%.
Same read-out and setting: in the case of `C1CCN2C[C@@H]3C[C@H](CN4CCCC[C@@H]34)[C@H]2C1` [ONC0003305, sparteine sulfate] it was 54.74%.
On the same count and under the same terms, in the case of `CN1C(=O)N(c2cc(Cl)cc(Cl)c2)C(=O)[C@@]1(C)Cc1ccc(Br)cc1` [ONC0001659, birt377] it was 74.89%; in that of `OCc1cc(C(O)CNCCCCCCOCCCCc2ccccc2)ccc1O` (stereo not shown) [ONC0001334, salmeterol xinafoate], 116.3%; in that of `C#CCN1C(C)=C(C(=O)OC)C(c2cccc([N+](=O)[O-])c2)C(C(=O)OCC)=C1C` (stereo not shown) [ONC0003025, mrs1845], 70.89%.
Still for that read-out and setting: next, `Clc1ccccc1CNC[C@H]1CC[C@H](CNCc2ccccc2Cl)CC1` [ONC0002740, ay9944]: 106.2%; `CC(C)(C)NC[C@H](O)c1ccc(O)c(CO)c1` [ONC0003419, levalbuterol hydrochloride]: 61.97%.
`CC(=O)O[C@]1(C(C)=O)CC[C@H]2[C@@H]3C=CC4=CC(=O)CC[C@]4(C)[C@H]3CC[C@@]21C` [ONC0002972, 67dehydro17acetoxyprogesterone]: the “% viability” value was 57.76%.
On to `CN(C)C1CCN(C(=O)c2ccc(NC(=O)Nc3ccc(-c4nc(N5CCOCC5)nc(N5CCOCC5)n4)cc3)cc2)CC1` [ONC0004930, pf05212384 pki587], for which the “% viability” value came to 94.79%.
The same measure, in the same setting: in the case of `CC(=O)Nc1c(I)c(C(=O)O)c(I)c(N(C)C(C)=O)c1I` [ONC0002767, metrizoic acid] it was 98.58%; in that of `CCOc1cc(C=O)ccc1O` [ONC0002407, ethyl vanillin], 88.16%; in that of `COc1ccc(Nc2ncnc3ccc(OC)cc23)cc1` [ONC0003007, ly456236], 87.69%.
As for `O=S(=O)(O)CCS` [ONC0000549, mesna], the “% viability” value came to 101.2%.
On the same count and under the same terms, in the case of `CCn1cc(C(=O)O)c(=O)c2cnc(N3CCCC3)nc21` [ONC0003907, piromidic acid] it was 74.26%.
Same read-out and setting: in the case of `C[C@@H]1CCCN1CCc1cc2cc(-c3ccc(C#N)cc3)ccc2o1` [ONC0003444, abt 239 tartrate] it was 49.56%; in that of `OC[C@H]1NCC[C@@H](O)[C@@H]1O` [ONC0001187, fagomine], 79.21%.
Still for that read-out and setting: next, `CCOc1ccccc1OCCN[C@H](C)Cc1ccc(OC)c(S(N)(=O)=O)c1` [ONC0005618, tamsulosinhcl]: 58.79%; `CN(C)/N=N/c1ccc(C(=O)O)cc1` [ONC0003759, cb10277]: 106.9%.
For `CCCCCCCCCCCCC[N+](C)(C)Cc1ccccc1` [ONC0002405, benzalkonium chloride hydrate], the “% viability” value is reported as 106.8%.
For the compound `CCCS(=O)(=O)Nc1ccc(F)c(C(=O)c2c[nH]c3ncc(-c4ccc(Cl)cc4)cc23)c1F` [ONC0002270, vemurafenib], the “% viability” value stood at 101.3%.
As for `CC(=O)[C@H]1CC[C@H]2[C@@H]3C[C@H](C)C4=CC(=O)CC[C@]4(C)[C@H]3[C@@H](O)C[C@]12C` [ONC0000445, medrysone], the “% viability” value is 69.04%.
Still for that read-out and setting: next, `CCOC(=O)OC(C)OC1=C(C(=O)Nc2ccccn2)N(C)S(=O)(=O)c2ccccc21` (stereo not shown) [ONC0001016, ampiroxicam]: 79.42%.
Same read-out and setting: in the case of `O=C(Nc1c(Cl)cncc1Cl)c1ccc(OC(F)F)c(OCC2CC2)c1` [ONC0004773, roflumilast daxas] it was 94%; in that of `Cc1cccc(-c2[nH]c(CNc3ccccc3F)nc2-c2ccc3ncnn3c2)n1` [ONC0005154], 115.6%; in that of `Cc1ccccc1/N=N/c1ccc(NC(=O)c2ccnn2C)c(C)c1` [ONC0000197, ch223191], 60.65%.
Still for that read-out and setting: next, `C[C@@H]1CC(=O)c2c(ccc3c2C(=O)c2cccc(O)c2C3=O)C1` [ONC0003376, ochromycinone]: 63.31%.
